# PubChem BioAssay AID1259425 – University of Nebraska Medical Center | 2018
# Aim: 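Find knockdowns that reproduce the gene expression pattern seen when KSR1 is lost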 (primary screen)
# Cells: HCT116 human colon cancer cells
# Reagent: siRNA pool against human genes, 50 nM siRNA
# Detection: 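After 50 nM siRNA pool, branched-DNA assay measures six marker transcripts per well, minus blank, normalised to the geometric mean of two housekeeping transcripts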
# Scale: BNIP3L mRNA: higher = more BNIP3L transcript after knockdown; NDRG1 mRNA: higher = more NDRG1 transcript after knockdown; BNIP3 mRNA: higher = more BNIP3 transcript after knockdown; ALDOC mRNA: higher = more ALDOC transcript after knockdown
# The whole screen tested about 14,000 reagents; this is a part drawn at random. Not all columns of the deposit are shown. Not given: the time to read-out.
Target gene,"BNIP3L mRNA, set 1","NDRG1 mRNA, set 1","BNIP3 mRNA, set 1","ALDOC mRNA, set 1"
L3MBTL1 (L3MBTL histone methyl-lysine binding protein 1),0.105,0.17,0.342,0.0114
GRAMD4 (GRAM domain containing 4),0.143,0.44,0.394,0.0274
CIB1 (calcium and integrin binding 1),0.0596,0.23,0.168,0.0147
NRF1 (nuclear respiratory factor 1),0.154,0.205,0.319,0.032
GPR87 (G protein-coupled receptor 87),0.0667,0.179,0.279,0.0177
FBXO8 (F-box protein 8),0.082,0.0625,0.255,0.0239
"ITPR2 (inositol 1,4,5-trisphosphate receptor type 2)",0.114,0.0991,0.299,0.0261
EPS8L1 (EPS8 signaling adaptor L1),0.16,0.116,0.406,0.0251
HMOX2 (heme oxygenase 2),0.115,0.215,0.227,0.0208
"TNNI3 (troponin I3, cardiac type)",0.0567,0.0958,0.429,0.0282
NUP155 (nucleoporin 155),0.0941,0.108,0.233,0.00757
NPIPB3 (nuclear pore complex interacting protein family member B3),0.111,0.395,0.22,0.0216
ACACB (acetyl-CoA carboxylase beta),0.0657,0.178,0.243,0.0153
FGF21 (fibroblast growth factor 21),0.0695,0.0921,0.273,0.0303
NIT1 (nitrilase 1),0.102,0.137,0.307,0.0263
LTN1 (listerin E3 ubiquitin protein ligase 1),0.154,0.445,0.652,0.0387
NHS (NHS actin remodeling regulator),0.106,0.144,0.194,0.0192
PTGES3 (prostaglandin E synthase 3),0.0851,0.252,0.264,0.0217
CFAP20 (cilia and flagella associated protein 20),0.0921,0.101,0.152,0.0336
VSIG2 (V-set and immunoglobulin domain containing 2),0.131,0.149,0.262,0.0167
CYB5R2 (cytochrome b5 reductase 2),0.0543,0.107,0.276,0.00818
TM2D1 (TM2 domain containing 1),0.212,0.207,0.409,0.0788
GALC (galactosylceramidase),0.154,0.0667,0.361,0.0169
DDX11 (DEAD/H-box helicase 11),0.0761,0.0942,0.22,0.0148
OR10H2 (olfactory receptor family 10 subfamily H member 2),0.131,0.135,0.31,0.0254
PRPF38A (pre-mRNA processing factor 38A),0.327,0.545,0.341,0.0906
YPEL5 (yippee like 5),0.183,0.522,0.528,0.113
P2RX6 (purinergic receptor P2X 6),0.133,0.23,0.349,0.0286
TIMM8A (translocase of inner mitochondrial membrane 8A),0.088,0.24,0.26,0.0102
BUD13 (BUD13 spliceosome associated protein),0.0612,0.113,0.166,0.0583
GOLPH3L (golgi phosphoprotein 3 like),0.109,0.139,0.37,0.0131
"ALPP (alkaline phosphatase, placental)",0.14,0.479,0.246,0.0175
CYP4A11 (cytochrome P450 family 4 subfamily A member 11),0.118,0.139,0.195,0.013
PDE2A (phosphodiesterase 2A),0.0782,0.0863,0.255,0.033
CAV2 (caveolin 2),0.149,0.0946,0.286,0.0337
NME4 (NME/NM23 nucleoside diphosphate kinase 4),0.327,0.321,0.855,0.0186
"QKI (QKI, KH domain containing RNA binding)",0.13,0.196,0.331,0.00748
CDK13 (cyclin dependent kinase 13),0.0867,0.225,0.222,0.00505
HAS3 (hyaluronan synthase 3),0.16,0.482,0.33,0.0154
H2AC8 (H2A clustered histone 8),0.0842,0.0851,0.526,0.0121
KIF1A (kinesin family member 1A),0.0508,0.0922,0.247,0.0211
KCNK12 (potassium two pore domain channel subfamily K member 12),0.0424,0.309,0.344,0.0253
USP16 (ubiquitin specific peptidase 16),0.0979,0.149,0.225,0.0335
IFI44 (interferon induced protein 44),0.128,0.249,0.301,0.0396
FIBP (FGF1 intracellular binding protein),0.0824,0.0588,0.182,0.0107
"ABHD12 (abhydrolase domain containing 12, lysophospholipase)",0.127,0.159,0.481,0.0382
EPHB6 (EPH receptor B6),0.0385,0.257,0.257,0.0165
NEUROD1 (neuronal differentiation 1),0.0601,0.0865,0.246,0.00526
KLRC4 (killer cell lectin like receptor C4),0.0472,0.073,0.305,0.0246
SPRY3 (sprouty RTK signaling antagonist 3),0.117,0.293,0.297,0.029
EVA1C (eva-1 homolog C),0.0664,0.186,0.317,0.0717
PITX2 (paired like homeodomain 2),0.0552,0.13,0.377,0.0159
MS4A7 (membrane spanning 4-domains A7),0.109,0.339,0.342,0.0399
"RAB10 (RAB10, member RAS oncogene family)",0.0863,0.19,0.311,0.0193
CSN2 (casein beta),0.244,0.327,0.572,0.0453
ALDH1L1 (aldehyde dehydrogenase 1 family member L1),0.124,0.402,0.167,0.0879
APOLD1 (apolipoprotein L domain containing 1),0.0362,0.334,0.307,0.041
RNF24 (ring finger protein 24),0.115,0.0994,0.321,0.0166
TENM1 (teneurin transmembrane protein 1),0.135,0.155,0.226,0.0166
RAI2 (retinoic acid induced 2),0.133,0.306,0.215,0.00513
POF1B (POF1B actin binding protein),0.16,0.134,0.223,0.0611
GUCA1C (guanylate cyclase activator 1C),0.11,0.368,0.208,0.0223
AOAH (acyloxyacyl hydrolase),0.165,0.111,0.543,0.0256
